The results in this text go back to the supplement of paper PMC10338343.

± gives the standard deviation. Some of the results follow. Many of these values have a large error. Some results are limits rather than exact numbers.

The test system of this assay is EfPiwi piRISC loaded with L1MC piRNA (26 nt). Nature of the assay: pre-steady-state target cleavage rate (min^-1); guide: L1MC piRNA 5'p-UAACUAAAUACUAUGCAAGCUGUAGG; MIWI and MILI are mouse PIWI proteins and EfPiwi is from a freshwater sponge; tags in brackets are library labels; higher = faster piRNA-guided slicing of the target. Particulars: auxiliary factor: 500 nM Ephydatia muelleri Gtsf1. The method, boiled down: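 A burst-and-steady-state fit was used to obtain the pre-steady-state cleavage rate. The input data were sequencing reads of uncleaved targets, normalised to depth and to weakly complementary targets, from a […] transcribed, DNA-blocked target RNA library mixed with 1 nM active affinity-purified piRISC holding one synthetic guide, with or without 500 nM GTSF1 partner protein, in HEPES–potassium acetate buffer at 33 °C for 0–8 or 0–960 min. Three trials were pooled and k3 was capped at 0.0001 min^-1.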
As to UCCUGGAUGUCGAUGGAUAGUAUUUAGUUA, the “pre-steady-state target cleavage rate” value stood at 0.000418 ± 0.011.
In the case of UCCUGCUACAGCUUGCAUAGUGUUUAGUUA, the “pre-steady-state target cleavage rate” value is 0.0065 ± 0.0019.
Consider UCCUCCUUCAGCUUGCAUAGUAUUUAGAAA, for which the “pre-steady-state target cleavage rate” value was found to be 0.00603 ± 0.0031.
Turning to UCCUGGUACAGCUUGCAUUGUAUUUUGUUA, the “pre-steady-state target cleavage rate” value was found to be 0.00266 ± 0.0026.
On to UCCUCCUACAGCUUGCAUAGUUUUUAGUAA, for which the “pre-steady-state target cleavage rate” value was determined as 0.005 ± 0.0022.
As for UCCUGCUACAGCUUGCAUAGUCAUUUAGUUA, the “pre-steady-state target cleavage rate” value was 0.00203 ± 0.003.
UCCUGGUACAGCUUGCAUAGUAUUUAGAAA: the “pre-steady-state target cleavage rate” value came out at 0.00435 ± 0.0017.
Consider UCCUGGAUGAGCUUGCAUUCUAUUUAGAAA, for which the “pre-steady-state target cleavage rate” value was 0.000784 ± 0.0046.
As for UCCUGGAUGUGCUUGCAUAGUUUUAGUUA, the figure is 0.0014 ± 0.0064; as for UCCUGCUAGAGCUUGCAUAGAAUUUAGUUA, 0.0043 ± 0.0014; as for UCCUGGAUGUCGAUGCAUAUGUAUUUAGUUA, 0.000533 ± 0.0066.
As to UCCUGGAUGUGCUUGCAUAGUAUUUACUUA, the “pre-steady-state target cleavage rate” value is 0.00181 ± 0.0034.
Consider UCCUGGAUGUCGUUGCAUAGUAUUUAGAUUA, for which the “pre-steady-state target cleavage rate” value turned out to be 0.00133 ± 0.0052.
For the sequence UCCUGGAUGUGCUUGCAUAGUAUUUAGGUUA, the “pre-steady-state target cleavage rate” value turned out to be 0.00262 ± 0.0021.
For UCCUGCUACACCUUGCAUACUAUUUAGUUA, the “pre-steady-state target cleavage rate” value is 0.00403 ± 0.0024.
With UCCUGGAUCAGCUUGCAUAUGUAUUUAGUUA, the “pre-steady-state target cleavage rate” value is 0.000543 ± 0.01.
Next, UCCUGGAUCAGCUUGCAUGAGUAUUUAGUUA: 0.000452 ± 0.016.
Take UCCUGGAUGAGCUUGCAUGGUAUUUAGUUA: the “pre-steady-state target cleavage rate” value turned out to be 0.0127 ± 0.0045.
With UCCUGGAUGUCCUUUCAUAGUAUUUAGUUA, the “pre-steady-state target cleavage rate” value stood at 0.000887 ± 0.0029.
UCCUGGAUGUCGAAGCAAAGUAUUUAGUUA: the “pre-steady-state target cleavage rate” value was 0.000997 ± 0.0053.
On to UCCUGGAUCACGUUGCAUAGUAUUUAGUAA, for which the “pre-steady-state target cleavage rate” value was 0.000725 ± 0.006.
As to UCCUGGAUGUGCUUGCUAGUAUUUAGUUA, the “pre-steady-state target cleavage rate” value was 0.00131 ± 0.0068.
In the case of UCCUGGAUCAGCAUUGCAUAGUAUUUAGUUA, the “pre-steady-state target cleavage rate” value was 0.0605 ± 0.015.
With UCCUGGAACAGCUAGCAUAGUAUUUACUUA, the “pre-steady-state target cleavage rate” value was found to be 0.00241 ± 0.0026.
For UCCUGGAACAGCUUGCAAUGUAUUUAGUAA, the “pre-steady-state target cleavage rate” value was 0.000357 ± 0.0089.
Consider UCCUGGAUGUCGAUGCUUAGUAUUUAGUUA, for which the “pre-steady-state target cleavage rate” value was 0.00134 ± 0.0043.
UCCUGGAUGAGCUUGCAUUGUAUUUACAAA: the “pre-steady-state target cleavage rate” value was determined as 0.000739 ± 0.008.
UCCUGGAACAGCUUGCAUAGUAUUUAGUUUA: the “pre-steady-state target cleavage rate” value is 0.0245 ± 0.0071.
In the case of UCCUGGAUGUCGUUGCAGAGUAUUUAGUUA, the “pre-steady-state target cleavage rate” value worked out at 0.00107 ± 0.0058.
In the case of UCCUGGAACAGGUUGCAUAGUUUUUAGUUA, the “pre-steady-state target cleavage rate” value stood at 0.00366 ± 0.0018.
For the sequence UCCUGGAUGUCGAACCAUAGUAUUUAGUCA, the “pre-steady-state target cleavage rate” value was below 0.0001.
On to UCCUGGUACAGCUUGCAUAGUAUUUCGUUA, for which the “pre-steady-state target cleavage rate” value came to 0.00191 ± 0.0039.
In the case of UCCUGGUACAGCUUCGUUAGUAUUUACAAA, the “pre-steady-state target cleavage rate” value amounted to 0.00067 ± 0.007.
With UCCUGGAUGUCCUUGCAUAGGUAUUUAGUUA, the “pre-steady-state target cleavage rate” value turned out to be 0.00127 ± 0.0048.
As to UCCUGGAUCAGCUUGGCAUAGUAUUUAGUUA, the “pre-steady-state target cleavage rate” value stood at 0.0127 ± 0.0034.
As to UCCUGGAACAGCUUGCUUAGUAUUUAGUAA, the “pre-steady-state target cleavage rate” value was determined as 0.00393 ± 0.0022.
Next, UCCUGCUACACCUUGCAUAGUAUUUAGAAA: 0.00176 ± 0.0023; UCCUGGAACAGCUUGCUUUGUAUUUAGUUA: 0.00396 ± 0.0025.
As for UCCUGGUAGACCUUGCAUAGUAUUUAGUUA, the figure is 0.0182 ± 0.0065.
